Source: PubChem BioAssay AID743121 (NCATS, 2013)
Purpose: 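Partners whose loss is lethal together with topoisomerase I blockade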 (primary screen). System: MDA-MB-231 cells, a human breast cancer line. Reagent: single siRNA against human genes, 20 nM siRNA (0.8 pmol per well). Timing: 120 h (drug added 48 h after transfection, read 72 h later). Conditions: camptothecin 20 nM (about EC30) for 72 h; vehicle 0.1% DMSO in parallel plates. Measurement: 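Cell viability by ATP luminescence (CellTiter-Glo) as % of non-targeting siRNA wells, and the log2 ratio of viability without drug over viability with camptothecin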. Direction: log2 vehicle/camptothecin viability: higher = stronger sensitisation to camptothecin; viability with camptothecin and viability without drug: higher = more viable cells. Call rule: 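Active genes have an RSA gene-level p-value below 0.001, computed from the ratios of their separate siRNAs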.
Shown is an unselected part of about 26,000 deposited reagents. In the full data, 167 (0.63%) are marked active. 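Calls are per gene from RSA p-values that are not deposited; an individual active-marked siRNA can sensitise only weakly.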 The numbers tell different reagents against one gene apart.

Target gene | reagent | log2 vehicle/camptothecin viability | viability with camptothecin (% of control) | viability without drug (% of control) | activity call
ETNK1 | 1 | -0.17 | 102 | 90.3 | inactive
ETNK1 | 2 | 0.129 | 91.3 | 99.9 | inactive
ETNK1 | 3 | -0.191 | 90.3 | 79.1 | inactive
ETNK1 | 4 | -0.504 | 71.3 | 50.3 | inactive
GNPAT | 1 | -0.108 | 109 | 101 | inactive
GNPAT | 2 | -0.222 | 62.3 | 53.4 | inactive
GNPAT | 3 | 0.512 | 37.1 | 52.9 | inactive
GNPAT | 4 | 0.459 | 45.6 | 62.7 | inactive
DUS4L | 1 | 0.578 | 47.1 | 70.2 | inactive
DUS4L | 2 | -0.151 | 89.2 | 80.3 | inactive
DUS4L | 3 | 0.165 | 84.4 | 94.6 | inactive
DUS4L | 4 | -0.604 | 64.1 | 42.2 | inactive
CAMK1D | 1 | -0.469 | 83.9 | 60.6 | inactive
CAMK1D | 2 | 0.0561 | 87 | 90.4 | inactive
CAMK1D | 3 | 0.159 | 39.9 | 44.5 | inactive
CAMK1D | 4 | 0.241 | 39 | 46.1 | inactive
CKMT2 | 1 | 0.0123 | 109 | 110 | inactive
CKMT2 | 2 | -0.231 | 59.7 | 50.9 | inactive
CKMT2 | 3 | -0.00407 | 75.3 | 75.1 | inactive
CKMT2 | 4 | -0.699 | 109 | 67.2 | inactive
ATRN | 1 | -0.173 | 74.4 | 66 | inactive
ATRN | 2 | -0.299 | 93.9 | 76.3 | inactive
ATRN | 3 | -0.112 | 68.6 | 63.5 | inactive
ATRN | 4 | -0.318 | 44.3 | 35.5 | inactive
CCR7 | 1 | -0.648 | 105 | 67.1 | inactive
CCR7 | 2 | -0.369 | 114 | 88.6 | inactive
CCR7 | 3 | -0.182 | 82.2 | 72.5 | inactive
CCR7 | 4 | -0.246 | 96.7 | 81.6 | inactive
CCL17 | 1 | -0.201 | 77.1 | 67.1 | inactive
CCL17 | 2 | -0.223 | 52.4 | 44.8 | inactive
CCL17 | 3 | -0.541 | 85.5 | 58.8 | inactive
CCL17 | 4 | -0.546 | 46.6 | 32 | inactive
SAT1 | 1 | 0.0635 | 92.6 | 96.7 | inactive
SAT1 | 2 | -0.0799 | 82.7 | 78.2 | inactive
SAT1 | 3 | -0.149 | 73.8 | 66.5 | inactive
SAT1 | 4 | -0.147 | 109 | 98.5 | inactive
CYP4F11 | 1 | 0.137 | 74.1 | 81.4 | inactive
CYP4F11 | 2 | 0.321 | 19.7 | 24.6 | inactive
CYP4F11 | 3 | 0.184 | 21.3 | 24.2 | inactive
CYP4F11 | 4 | -0.0703 | 107 | 102 | inactive
UBAC1 | 1 | -0.141 | 98.8 | 89.6 | inactive
UBAC1 | 2 | -0.0711 | 115 | 109 | inactive
UBAC1 | 3 | -0.00454 | 101 | 100 | inactive
UBAC1 | 4 | -0.0298 | 20.3 | 19.9 | inactive
CD3E | 1 | -0.23 | 82.7 | 70.5 | inactive
CD3E | 2 | -0.343 | 99 | 78.1 | inactive
CD3E | 3 | 0.414 | 40 | 53.3 | inactive

8 entries from above, reformatted:
Target gene	reagent	log2 vehicle/camptothecin viability	viability with camptothecin (% of control)	viability without drug (% of control)	activity call
CKMT2	1	0.0123	109	110	inactive
CKMT2	2	-0.231	59.7	50.9	inactive
CKMT2	3	-0.00407	75.3	75.1	inactive
CKMT2	4	-0.699	109	67.2	inactive
ATRN	1	-0.173	74.4	66	inactive
ATRN	2	-0.299	93.9	76.3	inactive
ATRN	3	-0.112	68.6	63.5	inactive
ATRN	4	-0.318	44.3	35.5	inactive
